Experimental data: US20090297500A1
These are yes or no findings as the source states them, for the method shown. Binding seen in cells or lysates may run through a third protein. Some binding calls cover weakened binding; strength is not graded here.

The chains behind the UniProt entries cited, without tags or fusion partners. Where a name states a change or a piece, a line headed by the entry shows the natural chain unless it says otherwise.
UniProt P61586: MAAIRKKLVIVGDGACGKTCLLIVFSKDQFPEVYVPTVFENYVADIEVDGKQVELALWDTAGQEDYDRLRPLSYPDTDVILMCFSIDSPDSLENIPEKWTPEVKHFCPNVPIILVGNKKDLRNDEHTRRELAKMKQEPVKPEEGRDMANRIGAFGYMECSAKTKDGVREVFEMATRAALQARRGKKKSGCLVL

Biological target: RhoA (endogenous, LC319 lung-cancer cells) (human) (UniProt P61586)
Test: co-immunoprecipitation from LC319 extracts: IP with anti-ANLN antibody, immunoblot with anti-RhoA antibody

B1: ANLN (human anillin, actin binding protein) (protein)
chain: MDPFTEKLLERTRARRENLQRKMAERPTAAPRSMTHAKRARQPLSEASNQQPLSGGEEKSCTKPSPSKKRCSDNTEVEVSNLENKQPVESTSAKSCSPSPVSPQVQPQAADTISDSVAVPASLLGMRRGLNSRLEATAASSVKTRMQKLAEQRRRWDNDDMTDDIPESSLFSPMPSEEKAASPPRPLLSNASATPVGRRGRLANLAATICSWEDDVNHSFAKQNSVQEQPGTACLSKFSSASGASARINSSSVKQEATFCSQRDGDASLNKALSSSADDASLVNASISSSVKATSPVKSTTSITDAKSCEGQNPELLPKTPISPLKTGVSKPIVKSTLSQTVPSKGELSREICLQSQSKDKSTTPGGTGIKPFLERFGERCQEHSKESPARSTPHRTPIITPNTKAIQERLFKQDTSSSTTHLAQQLKQERQKELACLRGRFDKGNIWSAEKGGNSKSKQLETKQETHCQSTPLKKHQGVSKTQSLPVTEKVTENQIPAKNSSTEPKGFTECEMTKSSPLKITLFLEEDKSLKVTSDPKVEQKIEVIREIEMSVDDDDINSSKVINDLFSDVLEEGELDMEKSQEEMDQALAESSEEQEDALNISSMSLLAPLAQTVGVVSPESLVSTPRLELKDTSRSDESPKPGKFQRTRVPRAESGDSLGSEDRDLLYSIDAYRSQRFKETERPSIKQVIVRKEDVTSKLDEKNNAFPCQVNIKQKMQELNNEINMQQTVIYQASQALNCCVDEEHGKGSLEEAEAERLLLIATGKRTLLIDELNKLKNEGPQRKNKASPQSEFMPSKGSVTLSEIRLPLKADFVCSTVQKPDAANYYYLIILKAGAENMVATPLASTSNSLNGDALTFTTTFTLQDVSNDFEINIEVYSLVQKKDPSGLDKKKKTSKSKAITPKRLLTSITTKSNIHSSVMASPGGLSAVRTSNFALVGSYTLSLSSVGNTKFVLDKVPFLSSLEGHIYLKIKCQVNSSVEERGFLTIFEDVSGFGAWHRRWCVLSGNCISYWTYPDDEKRKNPIGRINLANCTSRQIEPANREFCARRNTFELITVRPQREDDRETLVSQCRDTLCVTKNWLSADTKEERDLWMQKLNQVLVDIRLWQPDACYKPIGKP
  binding: binds
